Measurements published in paper PMC6156364, “Bioinformatic and in vitro Analyses of Arabidopsis Starch Synthase 2 Reveal Post-translational Regulatory Mechanisms” (Frontiers in Plant Science, 2018).

Protein sequences, listed by entry. Tags and fused reporters are not part of them. Lines headed by an entry give the natural chain unless they say otherwise; changes in a name come on top.
UniProt Q9MAC8: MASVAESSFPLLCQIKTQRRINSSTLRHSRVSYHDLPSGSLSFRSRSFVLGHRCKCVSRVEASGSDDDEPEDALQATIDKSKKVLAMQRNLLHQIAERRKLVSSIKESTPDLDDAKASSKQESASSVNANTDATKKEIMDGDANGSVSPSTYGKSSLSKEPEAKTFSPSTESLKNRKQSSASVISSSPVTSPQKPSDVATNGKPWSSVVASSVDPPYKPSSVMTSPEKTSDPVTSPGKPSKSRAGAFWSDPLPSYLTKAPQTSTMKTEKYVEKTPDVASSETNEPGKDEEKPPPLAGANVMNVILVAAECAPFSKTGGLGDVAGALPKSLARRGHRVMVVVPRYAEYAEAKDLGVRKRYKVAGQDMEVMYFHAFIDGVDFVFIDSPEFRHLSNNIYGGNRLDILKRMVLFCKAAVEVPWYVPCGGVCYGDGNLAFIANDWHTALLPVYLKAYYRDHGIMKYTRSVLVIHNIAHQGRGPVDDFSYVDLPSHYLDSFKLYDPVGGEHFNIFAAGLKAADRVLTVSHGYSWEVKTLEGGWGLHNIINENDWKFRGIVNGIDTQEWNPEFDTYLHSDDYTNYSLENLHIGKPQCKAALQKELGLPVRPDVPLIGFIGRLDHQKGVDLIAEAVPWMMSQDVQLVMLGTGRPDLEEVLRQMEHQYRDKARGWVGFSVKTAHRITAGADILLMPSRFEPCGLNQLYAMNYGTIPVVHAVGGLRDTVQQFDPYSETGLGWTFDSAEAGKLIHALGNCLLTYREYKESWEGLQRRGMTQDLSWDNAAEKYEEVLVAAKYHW

Assays:
Assay in all cases: pull-down; S-tagged SS2 immobilised on S-protein agarose beads as bait, incubated 40 min at room temperature with plastid stroma (~1 mg/ml) with 1 mM ATP, DTT, CaCl2, protease inhibitors; washed with 20 mM Tris-HCl pH 7.5, 150 mM NaCl, 0.1% Triton-X100; immunoblot with SBE antibodies; the paper calls it co-immunoprecipitation; only the target purified
[1] = molecular target: recombinant S-tagged Arabidopsis SS2 N-terminal truncation TRU1 (Arabidopsis thaliana) (UniProt Q9MAC8)
[2] = molecular target: recombinant S-tagged Arabidopsis SS2 N-terminal truncation TRU4 (Arabidopsis thaliana) (UniProt Q9MAC8)
[3] = molecular target: recombinant S-tagged Arabidopsis SS2 N-terminal truncation TRU5 (Arabidopsis thaliana) (UniProt Q9MAC8)

Measured: binding

B1: maize starch branching enzyme IIb (enzyme, UniProt Q08047 58-799)
chain: RKAVMVPEGENDGLASRADSAQFQSDELEVPDISEETTCGAGVADAQALNRVRVVPPPSDGQKIFQIDPMLQGYKYHLEYRYSLYRRIRSDIDEHEGGLEAFSRSYEKFGFNASAEGITYREWAPGAFSAALVGDVNNWDPNADRMSKNEFGVWEIFLPNNADGTSPIPHGSRVKVRMDTPSGIKDSIPAWIKYSVQAPGEIPYDGIYYDPPEEVKYVFRHAQPKRPKSLRIYETHVGMSSPEPKINTYVNFRDEVLPRIKKLGYNAVQIMAIQEHSYYGSFGYHVTNFFAPSSRFGTPEDLKSLIDRAHELGLLVLMDVVHSHASSNTLDGLNGFDGTDTHYFHSGPRGHHWMWDSRLFNYGNWEVLRFLLSNARWWLEEYKFDGFRFDGVTSMMYTHHGLQVTFTGNFNEYFGFATDVDAVVYLMLVNDLIHGLYPEAVTIGEDVSGMPTFALPVHDGGVGFDYRMHMAVADKWIDLLKQSDETWKMGDIVHTLTNRRWLEKCVTYAESHDQALVGDKTIAFWLMDKDMYDFMALDRPSTPTIDRGIALHKMIRLITMGLGGEGYLNFMGNEFGHPEWIDFPRGPQRLPSGKFIPGNNNSYDKCRRRFDLGDADYLRYHGMQEFDQAMQHLEQKYEFMTSDHQYISRKHEEDKVIVFEKGDLVFVFNFHCNNSYFDYRIGCRKPGVYKVVLDSDAGLFGGFSRIHHAAEHFTADCSHDNRPYSFSVYTPSRTCVVYAPVE
binds: all assays above

No constants are given. Whether binding was seen depends on the method and setting. Binding seen in cells or lysates may run through a third protein. Binding can be weak; no strength is given.
